Experimental data: publication doi:10.1101/2025.01.15.633117
Where two headings read alike, the source gives them in different places. Results are given in words; binding and its absence hold for the method and conditions named. Binding seen in cells or lysates may run through a third protein. Here binding means that the protein was enriched with, or labelled near, the bait; the list need not be complete. For some assays here: Tags and fused reporters may be left off the sequences shown.

Chains of the proteins cited; added tags and fusions are not shown. Residues count along the entry.
UniProt Q01973, residues 30-937: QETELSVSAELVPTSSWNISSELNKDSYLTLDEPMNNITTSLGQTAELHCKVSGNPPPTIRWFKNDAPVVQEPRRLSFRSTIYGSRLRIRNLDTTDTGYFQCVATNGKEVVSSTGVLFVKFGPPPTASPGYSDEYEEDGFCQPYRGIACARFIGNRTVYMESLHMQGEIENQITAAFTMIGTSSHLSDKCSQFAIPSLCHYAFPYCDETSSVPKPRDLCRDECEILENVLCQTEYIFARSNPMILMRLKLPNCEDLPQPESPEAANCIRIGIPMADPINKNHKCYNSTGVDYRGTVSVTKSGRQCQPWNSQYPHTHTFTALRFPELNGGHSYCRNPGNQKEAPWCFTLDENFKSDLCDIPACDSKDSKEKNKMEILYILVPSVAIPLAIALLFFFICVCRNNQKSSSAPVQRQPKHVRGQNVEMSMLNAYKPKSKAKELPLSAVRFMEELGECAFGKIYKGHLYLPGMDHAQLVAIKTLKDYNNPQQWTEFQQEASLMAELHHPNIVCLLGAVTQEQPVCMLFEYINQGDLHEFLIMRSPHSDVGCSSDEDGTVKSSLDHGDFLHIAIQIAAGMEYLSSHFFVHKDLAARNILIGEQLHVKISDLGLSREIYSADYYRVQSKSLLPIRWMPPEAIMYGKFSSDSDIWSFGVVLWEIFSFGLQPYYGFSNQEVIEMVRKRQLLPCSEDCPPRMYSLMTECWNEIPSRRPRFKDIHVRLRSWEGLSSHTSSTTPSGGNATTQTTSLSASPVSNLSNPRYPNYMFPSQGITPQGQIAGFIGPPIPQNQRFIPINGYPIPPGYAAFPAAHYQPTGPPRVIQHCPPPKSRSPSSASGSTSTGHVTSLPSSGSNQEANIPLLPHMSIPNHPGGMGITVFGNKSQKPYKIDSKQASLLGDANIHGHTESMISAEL
UniProt Q01974, residues 34-943: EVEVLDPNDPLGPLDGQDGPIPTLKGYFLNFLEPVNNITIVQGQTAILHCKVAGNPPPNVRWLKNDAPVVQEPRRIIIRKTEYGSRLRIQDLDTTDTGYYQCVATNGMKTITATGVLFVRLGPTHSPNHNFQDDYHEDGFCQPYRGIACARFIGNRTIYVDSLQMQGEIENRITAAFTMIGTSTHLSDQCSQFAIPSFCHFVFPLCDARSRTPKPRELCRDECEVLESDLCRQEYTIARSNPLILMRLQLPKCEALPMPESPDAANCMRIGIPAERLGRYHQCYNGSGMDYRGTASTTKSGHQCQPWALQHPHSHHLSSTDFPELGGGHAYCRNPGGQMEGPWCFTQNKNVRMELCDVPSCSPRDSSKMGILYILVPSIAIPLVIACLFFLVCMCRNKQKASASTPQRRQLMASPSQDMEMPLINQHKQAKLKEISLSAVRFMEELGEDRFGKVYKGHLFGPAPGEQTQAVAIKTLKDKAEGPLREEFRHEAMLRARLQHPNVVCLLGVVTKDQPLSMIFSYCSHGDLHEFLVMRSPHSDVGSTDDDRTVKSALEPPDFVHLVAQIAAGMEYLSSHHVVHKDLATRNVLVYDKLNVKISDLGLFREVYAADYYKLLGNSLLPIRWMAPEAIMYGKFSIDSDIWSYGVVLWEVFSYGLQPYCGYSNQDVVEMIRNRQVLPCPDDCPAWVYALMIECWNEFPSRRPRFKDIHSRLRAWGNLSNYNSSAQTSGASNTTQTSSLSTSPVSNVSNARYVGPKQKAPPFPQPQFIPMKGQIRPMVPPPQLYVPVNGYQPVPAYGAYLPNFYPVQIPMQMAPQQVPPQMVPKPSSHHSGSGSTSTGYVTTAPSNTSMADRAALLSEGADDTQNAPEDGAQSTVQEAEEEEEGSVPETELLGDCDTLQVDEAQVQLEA
UniProt P29317, residues 24-976: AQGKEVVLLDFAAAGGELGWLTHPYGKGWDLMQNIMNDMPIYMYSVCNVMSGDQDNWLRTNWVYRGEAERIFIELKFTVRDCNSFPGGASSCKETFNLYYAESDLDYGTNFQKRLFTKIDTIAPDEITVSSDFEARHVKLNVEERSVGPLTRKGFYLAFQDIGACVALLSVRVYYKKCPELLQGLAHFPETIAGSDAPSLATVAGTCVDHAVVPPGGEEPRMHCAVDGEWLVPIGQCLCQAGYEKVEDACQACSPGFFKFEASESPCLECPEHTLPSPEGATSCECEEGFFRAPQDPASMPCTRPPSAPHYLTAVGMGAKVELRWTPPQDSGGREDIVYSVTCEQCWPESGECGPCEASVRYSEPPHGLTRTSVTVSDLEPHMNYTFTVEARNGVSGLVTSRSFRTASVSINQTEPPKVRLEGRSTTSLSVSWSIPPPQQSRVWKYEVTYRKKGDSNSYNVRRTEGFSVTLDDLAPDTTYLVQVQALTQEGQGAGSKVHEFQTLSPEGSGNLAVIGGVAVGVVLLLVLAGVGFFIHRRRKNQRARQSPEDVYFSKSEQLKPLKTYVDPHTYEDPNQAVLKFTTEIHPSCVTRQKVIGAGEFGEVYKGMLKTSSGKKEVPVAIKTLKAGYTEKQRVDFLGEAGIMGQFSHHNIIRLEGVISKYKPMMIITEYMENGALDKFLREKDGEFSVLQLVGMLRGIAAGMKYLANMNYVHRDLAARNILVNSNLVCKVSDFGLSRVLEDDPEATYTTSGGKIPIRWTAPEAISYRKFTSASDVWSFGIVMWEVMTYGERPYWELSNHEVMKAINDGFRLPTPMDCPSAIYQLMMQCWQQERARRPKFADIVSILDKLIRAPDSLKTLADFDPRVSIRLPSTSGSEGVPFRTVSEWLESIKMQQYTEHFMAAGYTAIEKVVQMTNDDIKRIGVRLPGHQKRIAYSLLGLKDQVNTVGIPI
UniProt Q14160: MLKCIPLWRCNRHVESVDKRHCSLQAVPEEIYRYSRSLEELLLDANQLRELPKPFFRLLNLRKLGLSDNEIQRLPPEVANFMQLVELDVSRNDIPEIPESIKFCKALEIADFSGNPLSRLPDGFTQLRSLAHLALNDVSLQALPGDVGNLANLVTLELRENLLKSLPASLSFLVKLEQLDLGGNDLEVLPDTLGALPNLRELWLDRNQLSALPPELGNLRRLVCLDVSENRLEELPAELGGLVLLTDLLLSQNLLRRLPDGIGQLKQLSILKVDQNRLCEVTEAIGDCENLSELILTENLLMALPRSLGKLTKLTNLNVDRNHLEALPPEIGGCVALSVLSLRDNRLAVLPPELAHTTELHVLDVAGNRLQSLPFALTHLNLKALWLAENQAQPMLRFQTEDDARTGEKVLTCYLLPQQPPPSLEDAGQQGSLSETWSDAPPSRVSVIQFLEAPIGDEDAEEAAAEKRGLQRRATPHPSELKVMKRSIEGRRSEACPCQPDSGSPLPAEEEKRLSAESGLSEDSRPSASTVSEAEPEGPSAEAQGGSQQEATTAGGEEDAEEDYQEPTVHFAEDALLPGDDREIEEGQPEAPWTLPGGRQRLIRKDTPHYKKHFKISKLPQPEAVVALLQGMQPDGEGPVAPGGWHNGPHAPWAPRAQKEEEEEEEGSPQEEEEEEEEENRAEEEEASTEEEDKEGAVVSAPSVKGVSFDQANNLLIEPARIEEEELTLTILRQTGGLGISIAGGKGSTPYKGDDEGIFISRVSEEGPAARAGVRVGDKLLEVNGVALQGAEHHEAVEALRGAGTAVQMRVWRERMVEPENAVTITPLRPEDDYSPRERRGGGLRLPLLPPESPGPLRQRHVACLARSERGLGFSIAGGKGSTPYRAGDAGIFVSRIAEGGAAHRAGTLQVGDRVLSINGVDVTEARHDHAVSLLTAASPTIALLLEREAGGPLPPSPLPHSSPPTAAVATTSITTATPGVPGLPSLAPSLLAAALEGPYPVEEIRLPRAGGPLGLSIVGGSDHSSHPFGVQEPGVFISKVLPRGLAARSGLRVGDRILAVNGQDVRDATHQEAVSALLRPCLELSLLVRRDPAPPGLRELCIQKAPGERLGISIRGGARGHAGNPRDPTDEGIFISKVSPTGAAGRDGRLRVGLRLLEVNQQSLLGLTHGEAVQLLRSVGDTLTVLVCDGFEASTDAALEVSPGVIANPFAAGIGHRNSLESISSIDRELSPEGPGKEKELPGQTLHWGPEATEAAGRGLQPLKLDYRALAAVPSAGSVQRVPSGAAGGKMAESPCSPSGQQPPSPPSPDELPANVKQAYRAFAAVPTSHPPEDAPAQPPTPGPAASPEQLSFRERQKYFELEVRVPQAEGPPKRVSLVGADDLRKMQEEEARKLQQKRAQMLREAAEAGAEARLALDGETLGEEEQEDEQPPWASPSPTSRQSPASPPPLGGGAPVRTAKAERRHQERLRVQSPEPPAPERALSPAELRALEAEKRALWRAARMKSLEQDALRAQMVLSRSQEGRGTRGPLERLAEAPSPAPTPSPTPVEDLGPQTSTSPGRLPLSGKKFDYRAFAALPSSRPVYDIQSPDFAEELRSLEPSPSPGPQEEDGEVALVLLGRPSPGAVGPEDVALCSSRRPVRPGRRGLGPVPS
UniProt Q9C0D5: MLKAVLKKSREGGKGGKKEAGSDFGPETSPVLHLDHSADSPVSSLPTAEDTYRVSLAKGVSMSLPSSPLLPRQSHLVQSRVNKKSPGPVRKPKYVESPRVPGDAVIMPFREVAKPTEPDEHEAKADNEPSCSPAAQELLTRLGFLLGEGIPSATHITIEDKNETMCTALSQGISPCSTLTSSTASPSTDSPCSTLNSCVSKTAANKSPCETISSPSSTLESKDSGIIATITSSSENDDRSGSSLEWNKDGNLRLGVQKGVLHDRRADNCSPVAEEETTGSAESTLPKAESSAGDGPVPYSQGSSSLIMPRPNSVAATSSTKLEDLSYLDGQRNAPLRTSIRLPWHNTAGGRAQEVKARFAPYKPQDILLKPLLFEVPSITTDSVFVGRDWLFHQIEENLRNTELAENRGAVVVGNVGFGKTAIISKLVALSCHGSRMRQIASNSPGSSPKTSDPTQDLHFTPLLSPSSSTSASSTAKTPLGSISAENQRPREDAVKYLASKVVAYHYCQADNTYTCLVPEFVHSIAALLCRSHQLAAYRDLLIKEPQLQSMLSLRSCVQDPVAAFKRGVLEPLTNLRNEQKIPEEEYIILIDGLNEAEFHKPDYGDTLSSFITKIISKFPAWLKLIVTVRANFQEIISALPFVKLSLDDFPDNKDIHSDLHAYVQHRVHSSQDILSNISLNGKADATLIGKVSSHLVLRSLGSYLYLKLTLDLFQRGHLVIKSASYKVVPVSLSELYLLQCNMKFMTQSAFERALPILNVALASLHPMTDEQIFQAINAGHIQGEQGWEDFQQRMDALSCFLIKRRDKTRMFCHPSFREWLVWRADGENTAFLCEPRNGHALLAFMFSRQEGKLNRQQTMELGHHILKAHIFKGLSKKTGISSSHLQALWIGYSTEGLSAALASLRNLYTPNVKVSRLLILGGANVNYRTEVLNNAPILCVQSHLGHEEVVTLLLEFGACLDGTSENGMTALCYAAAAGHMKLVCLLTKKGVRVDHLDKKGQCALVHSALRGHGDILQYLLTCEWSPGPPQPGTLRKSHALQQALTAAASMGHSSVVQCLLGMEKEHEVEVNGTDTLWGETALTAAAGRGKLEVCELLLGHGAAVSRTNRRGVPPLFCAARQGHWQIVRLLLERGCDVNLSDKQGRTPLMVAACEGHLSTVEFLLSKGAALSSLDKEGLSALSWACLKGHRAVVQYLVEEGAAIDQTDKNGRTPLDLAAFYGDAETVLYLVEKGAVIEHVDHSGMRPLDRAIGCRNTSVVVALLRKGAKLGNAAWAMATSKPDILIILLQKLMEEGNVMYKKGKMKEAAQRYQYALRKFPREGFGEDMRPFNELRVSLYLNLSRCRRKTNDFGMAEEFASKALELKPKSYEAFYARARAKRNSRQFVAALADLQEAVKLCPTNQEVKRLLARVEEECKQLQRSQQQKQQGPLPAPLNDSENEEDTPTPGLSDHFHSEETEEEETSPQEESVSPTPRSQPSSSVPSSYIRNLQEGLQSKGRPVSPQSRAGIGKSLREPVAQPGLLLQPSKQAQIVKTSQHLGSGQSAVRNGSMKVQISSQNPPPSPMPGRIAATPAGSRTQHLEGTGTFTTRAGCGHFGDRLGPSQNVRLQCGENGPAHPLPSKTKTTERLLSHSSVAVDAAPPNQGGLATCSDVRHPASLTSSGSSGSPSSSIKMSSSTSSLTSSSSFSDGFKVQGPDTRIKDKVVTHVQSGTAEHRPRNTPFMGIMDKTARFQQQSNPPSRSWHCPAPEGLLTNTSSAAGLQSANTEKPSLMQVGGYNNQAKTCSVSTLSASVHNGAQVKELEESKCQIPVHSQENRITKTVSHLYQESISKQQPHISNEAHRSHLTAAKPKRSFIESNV

T1: MYC-BirA*-PRICKLE1 (human) (UniProt Q96MT3)
T1 sequence: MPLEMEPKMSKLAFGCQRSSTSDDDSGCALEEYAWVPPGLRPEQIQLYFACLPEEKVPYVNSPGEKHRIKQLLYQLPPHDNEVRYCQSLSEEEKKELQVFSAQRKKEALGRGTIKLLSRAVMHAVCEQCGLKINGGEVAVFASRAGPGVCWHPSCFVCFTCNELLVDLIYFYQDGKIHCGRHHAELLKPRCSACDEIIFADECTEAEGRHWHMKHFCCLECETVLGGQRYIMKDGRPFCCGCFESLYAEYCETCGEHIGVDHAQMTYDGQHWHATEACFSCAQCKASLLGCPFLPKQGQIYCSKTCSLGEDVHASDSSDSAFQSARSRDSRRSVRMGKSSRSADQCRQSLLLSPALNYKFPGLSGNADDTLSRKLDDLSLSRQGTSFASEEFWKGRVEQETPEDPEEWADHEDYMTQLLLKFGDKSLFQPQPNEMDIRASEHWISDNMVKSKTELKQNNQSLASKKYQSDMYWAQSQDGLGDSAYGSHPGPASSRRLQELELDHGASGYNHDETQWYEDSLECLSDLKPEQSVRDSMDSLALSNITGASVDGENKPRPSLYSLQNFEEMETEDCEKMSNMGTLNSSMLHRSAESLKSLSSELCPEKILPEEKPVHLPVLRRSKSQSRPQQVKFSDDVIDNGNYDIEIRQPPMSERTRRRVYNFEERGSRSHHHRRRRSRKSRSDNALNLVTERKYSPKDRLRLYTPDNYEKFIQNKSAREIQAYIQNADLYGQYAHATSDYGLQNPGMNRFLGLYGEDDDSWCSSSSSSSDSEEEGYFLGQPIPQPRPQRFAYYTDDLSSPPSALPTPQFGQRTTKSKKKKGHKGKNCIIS

T2: RAI14-V5-miniTurboID (human) (UniProt Q9P0K7)
T2 sequence: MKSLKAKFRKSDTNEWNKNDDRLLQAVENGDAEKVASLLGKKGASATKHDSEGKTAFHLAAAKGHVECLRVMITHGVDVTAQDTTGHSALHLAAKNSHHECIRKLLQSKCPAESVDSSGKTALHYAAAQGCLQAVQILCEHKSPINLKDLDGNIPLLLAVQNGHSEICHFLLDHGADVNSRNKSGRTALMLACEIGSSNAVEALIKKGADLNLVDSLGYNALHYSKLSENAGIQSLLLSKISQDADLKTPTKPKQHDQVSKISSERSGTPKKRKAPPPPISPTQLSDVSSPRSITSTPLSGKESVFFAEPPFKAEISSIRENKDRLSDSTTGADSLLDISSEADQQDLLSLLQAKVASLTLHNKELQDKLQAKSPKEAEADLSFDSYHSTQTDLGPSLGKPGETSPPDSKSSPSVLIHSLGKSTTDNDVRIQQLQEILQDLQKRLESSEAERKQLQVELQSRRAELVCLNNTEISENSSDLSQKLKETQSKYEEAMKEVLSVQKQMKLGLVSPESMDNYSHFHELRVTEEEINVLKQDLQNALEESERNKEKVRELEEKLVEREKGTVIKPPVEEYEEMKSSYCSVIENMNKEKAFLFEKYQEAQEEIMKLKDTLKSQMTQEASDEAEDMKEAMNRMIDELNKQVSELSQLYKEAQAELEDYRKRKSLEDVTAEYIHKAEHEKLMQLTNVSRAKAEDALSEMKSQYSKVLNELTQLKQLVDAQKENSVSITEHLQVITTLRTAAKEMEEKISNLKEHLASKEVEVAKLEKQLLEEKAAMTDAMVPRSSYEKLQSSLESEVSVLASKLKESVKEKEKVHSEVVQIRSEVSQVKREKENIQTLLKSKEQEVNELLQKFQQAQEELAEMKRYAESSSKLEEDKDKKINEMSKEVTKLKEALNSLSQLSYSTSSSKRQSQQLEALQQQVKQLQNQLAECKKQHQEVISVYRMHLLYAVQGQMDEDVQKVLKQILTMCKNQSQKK

T3: PHACTR4-V5-miniTurboID (human) (UniProt Q8IZ21)
T3 sequence: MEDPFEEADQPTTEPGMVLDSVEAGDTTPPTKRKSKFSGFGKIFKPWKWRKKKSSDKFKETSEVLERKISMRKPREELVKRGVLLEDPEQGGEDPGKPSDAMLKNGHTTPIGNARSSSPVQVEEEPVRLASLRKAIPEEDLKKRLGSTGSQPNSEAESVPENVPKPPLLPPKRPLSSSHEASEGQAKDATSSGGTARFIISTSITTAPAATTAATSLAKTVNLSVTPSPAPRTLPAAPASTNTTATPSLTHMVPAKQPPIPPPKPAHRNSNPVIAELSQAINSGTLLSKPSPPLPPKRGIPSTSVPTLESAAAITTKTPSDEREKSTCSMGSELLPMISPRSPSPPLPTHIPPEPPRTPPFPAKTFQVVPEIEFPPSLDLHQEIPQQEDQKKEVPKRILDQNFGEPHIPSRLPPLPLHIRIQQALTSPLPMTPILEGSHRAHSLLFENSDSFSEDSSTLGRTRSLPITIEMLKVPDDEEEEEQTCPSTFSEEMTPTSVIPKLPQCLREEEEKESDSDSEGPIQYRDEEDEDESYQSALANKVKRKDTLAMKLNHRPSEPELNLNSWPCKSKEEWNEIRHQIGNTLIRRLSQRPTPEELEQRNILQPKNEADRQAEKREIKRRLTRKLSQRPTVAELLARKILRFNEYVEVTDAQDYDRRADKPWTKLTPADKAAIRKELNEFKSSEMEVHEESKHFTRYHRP


Tests used:
Assay in all cases: proximity labelling
[1] = biological target: T1, MYC-BirA*-PRICKLE1 (human)
[2] = biological target: ROR1-BirA*-HA (human) (UniProt Q01973)
[3] = biological target: ROR2-BirA*-HA (human) (UniProt Q01974)
[4] = biological target: EPHA2-V5-miniTurboID (human) (UniProt P29317)
[5] = biological target: T2, RAI14-V5-miniTurboID (human)
[6] = biological target: T3, PHACTR4-V5-miniTurboID (human)
[7] = biological target: T1, MYC-BirA*-PRICKLE1 (human); remark: listed apart in the source
[8] = biological target: ROR1-BirA*-HA (human) (UniProt Q01973); remark: listed apart in the source
[9] = biological target: ROR2-BirA*-HA (human) (UniProt Q01974); remark: listed apart in the source

Row | Molecule | binding [1] | binding [2] | binding [3] | further results
1 | EPHA2 (endogenous) (from UniProt P29317 24-976) (receptor) | binds | binds | binds | 
2 | AHNAK2 (from UniProt Q8IVF2 1-5795) | binds | binds | binds | 
3 | ROR1 (endogenous) (from UniProt Q01973 30-937) (receptor) |  |  |  | binding [4]: binds; binding [5]: binds
4 | CELSR1 (from UniProt Q9NYQ6 21-3014) (receptor) |  |  |  | binding [6]: binds
5 | CELSR2 (from UniProt Q9HCU4 32-2923) (receptor) |  |  |  | binding [6]: binds
6 | SMURF2 (from UniProt Q9HAU4 1-748) (enzyme) |  |  |  | binding [6]: binds
7 | SCRIB (from UniProt Q14160 1-1655) | binds | binds | binds | 
8 | PARD3 (from UniProt Q8TEW0 1-1356) | binds | binds | binds | 
9 | TANC1 (from UniProt Q9C0D5 1-1861) | binds | binds | binds | 
10 | RAI14 (endogenous) (protein, UniProt Q9P0K7 1-980) MKSLKAKFRKSDTNEWNKNDDRLLQAVENGDAEKVASLLGKKGASATKHDSEGKTAFHLAAAKGHVECLRVMITHGVDVTAQDTTGHSALHLAAKNSHHECIRKLLQSKCPAESVDSSGKTALHYAAAQGCLQAVQILCEHKSPINLKDLDGNIPLLLAVQNGHSEICHFLLDHGADVNSRNKSGRTALMLACEIGSSNAVEALIKKGADLNLVDSLGYNALHYSKLSENAGIQSLLLSKISQDADLKTPTKPKQHDQVSKISSERSGTPKKRKAPPPPISPTQLSDVSSPRSITSTPLSGKESVFFAEPPFKAEISSIRENKDRLSDSTTGADSLLDISSEADQQDLLSLLQAKVASLTLHNKELQDKLQAKSPKEAEADLSFDSYHSTQTDLGPSLGKPGETSPPDSKSSPSVLIHSLGKSTTDNDVRIQQLQEILQDLQKRLESSEAERKQLQVELQSRRAELVCLNNTEISENSSDLSQKLKETQSKYEEAMKEVLSVQKQMKLGLVSPESMDNYSHFHELRVTEEEINVLKQDLQNALEESERNKEKVRELEEKLVEREKGTVIKPPVEEYEEMKSSYCSVIENMNKEKAFLFEKYQEAQEEIMKLKDTLKSQMTQEASDEAEDMKEAMNRMIDELNKQVSELSQLYKEAQAELEDYRKRKSLEDVTAEYIHKAEHEKLMQLTNVSRAKAEDALSEMKSQYSKVLNELTQLKQLVDAQKENSVSITEHLQVITTLRTAAKEMEEKISNLKEHLASKEVEVAKLEKQLLEEKAAMTDAMVPRSSYEKLQSSLESEVSVLASKLKESVKEKEKVHSEVVQIRSEVSQVKREKENIQTLLKSKEQEVNELLQKFQQAQEELAEMKRYAESSSKLEEDKDKKINEMSKEVTKLKEALNSLSQLSYSTSSSKRQSQQLEALQQQVKQLQNQLAECKKQHQEVISVYRMHLLYAVQGQMDEDVQKVLKQILTMCKNQSQKK |  |  |  | binding [7]: binds; binding [8]: binds; binding [9]: binds
11 | PHACTR4 (endogenous) (protein, UniProt Q8IZ21 1-702) MEDPFEEADQPTTEPGMVLDSVEAGDTTPPTKRKSKFSGFGKIFKPWKWRKKKSSDKFKETSEVLERKISMRKPREELVKRGVLLEDPEQGGEDPGKPSDAMLKNGHTTPIGNARSSSPVQVEEEPVRLASLRKAIPEEDLKKRLGSTGSQPNSEAESVPENVPKPPLLPPKRPLSSSHEASEGQAKDATSSGGTARFIISTSITTAPAATTAATSLAKTVNLSVTPSPAPRTLPAAPASTNTTATPSLTHMVPAKQPPIPPPKPAHRNSNPVIAELSQAINSGTLLSKPSPPLPPKRGIPSTSVPTLESAAAITTKTPSDEREKSTCSMGSELLPMISPRSPSPPLPTHIPPEPPRTPPFPAKTFQVVPEIEFPPSLDLHQEIPQQEDQKKEVPKRILDQNFGEPHIPSRLPPLPLHIRIQQALTSPLPMTPILEGSHRAHSLLFENSDSFSEDSSTLGRTRSLPITIEMLKVPDDEEEEEQTCPSTFSEEMTPTSVIPKLPQCLREEEEKESDSDSEGPIQYRDEEDEDESYQSALANKVKRKDTLAMKLNHRPSEPELNLNSWPCKSKEEWNEIRHQIGNTLIRRLSQRPTPEELEQRNILQPKNEADRQAEKREIKRRLTRKLSQRPTVAELLARKILRFNEYVEVTDAQDYDRRADKPWTKLTPADKAAIRKELNEFKSSEMEVHEESKHFTRYHRP |  |  |  | binding [7]: binds; binding [8]: binds; binding [9]: binds
